Reference: paper PMC12164954
No constants are given. Whether binding was seen depends on the method and setting. Sequences can lack the tags named with a protein.

Sequences of proteins named here, by UniProt entry; tags and fusion partners are left off.
UniProt Q0WNJ6: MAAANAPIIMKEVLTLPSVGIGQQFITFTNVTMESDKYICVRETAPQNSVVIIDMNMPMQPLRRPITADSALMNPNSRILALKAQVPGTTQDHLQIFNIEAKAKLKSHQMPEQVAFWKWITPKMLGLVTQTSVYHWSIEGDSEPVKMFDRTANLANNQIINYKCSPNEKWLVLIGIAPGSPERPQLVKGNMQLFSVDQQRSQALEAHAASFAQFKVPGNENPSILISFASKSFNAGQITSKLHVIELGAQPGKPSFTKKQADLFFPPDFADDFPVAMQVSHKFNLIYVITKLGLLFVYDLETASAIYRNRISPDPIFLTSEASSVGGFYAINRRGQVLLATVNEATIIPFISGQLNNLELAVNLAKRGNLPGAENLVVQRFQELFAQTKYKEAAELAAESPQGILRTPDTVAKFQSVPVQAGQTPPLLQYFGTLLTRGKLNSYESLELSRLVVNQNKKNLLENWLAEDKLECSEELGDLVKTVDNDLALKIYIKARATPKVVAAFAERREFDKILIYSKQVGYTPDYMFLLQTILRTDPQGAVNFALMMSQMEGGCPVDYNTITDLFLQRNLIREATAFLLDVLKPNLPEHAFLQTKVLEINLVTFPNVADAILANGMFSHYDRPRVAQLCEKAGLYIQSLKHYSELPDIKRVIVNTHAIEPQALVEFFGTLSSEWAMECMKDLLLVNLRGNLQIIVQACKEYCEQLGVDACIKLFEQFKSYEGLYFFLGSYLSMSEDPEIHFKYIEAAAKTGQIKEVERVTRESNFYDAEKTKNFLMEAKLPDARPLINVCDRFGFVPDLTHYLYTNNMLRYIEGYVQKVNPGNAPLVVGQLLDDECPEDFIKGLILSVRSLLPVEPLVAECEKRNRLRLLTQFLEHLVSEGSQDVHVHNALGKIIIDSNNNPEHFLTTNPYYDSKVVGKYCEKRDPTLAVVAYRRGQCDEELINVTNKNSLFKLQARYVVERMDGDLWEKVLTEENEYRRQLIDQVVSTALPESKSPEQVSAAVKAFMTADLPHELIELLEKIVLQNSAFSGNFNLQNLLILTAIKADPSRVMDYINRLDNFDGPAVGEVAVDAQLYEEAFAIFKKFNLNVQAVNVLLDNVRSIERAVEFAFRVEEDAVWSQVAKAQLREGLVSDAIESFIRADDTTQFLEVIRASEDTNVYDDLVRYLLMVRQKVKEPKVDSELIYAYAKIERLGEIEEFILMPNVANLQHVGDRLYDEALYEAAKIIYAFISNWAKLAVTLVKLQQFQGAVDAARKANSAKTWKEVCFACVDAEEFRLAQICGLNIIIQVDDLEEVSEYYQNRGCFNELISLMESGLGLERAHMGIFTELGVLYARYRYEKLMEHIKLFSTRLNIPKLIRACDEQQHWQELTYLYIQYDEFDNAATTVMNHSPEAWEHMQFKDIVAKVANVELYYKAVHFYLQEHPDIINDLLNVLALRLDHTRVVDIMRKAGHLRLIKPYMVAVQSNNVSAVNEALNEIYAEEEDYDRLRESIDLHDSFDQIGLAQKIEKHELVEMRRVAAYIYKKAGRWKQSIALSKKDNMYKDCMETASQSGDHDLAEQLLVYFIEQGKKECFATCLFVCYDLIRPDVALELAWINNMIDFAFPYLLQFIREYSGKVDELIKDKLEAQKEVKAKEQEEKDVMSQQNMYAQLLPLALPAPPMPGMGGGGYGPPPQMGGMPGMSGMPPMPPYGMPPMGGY

B1: SnRK2.2 fused with activation domain (AD) (enzyme, UniProt Q39192 1-362)
chain: MDPATNSPIMPIDLPIMHDSDRYDFVKDIGSGNFGVARLMTDRVTKELVAVKYIERGEKIDENVQREIINHRSLRHPNIVRFKEVILTPSHLAIVMEYAAGGELYERICNAGRFSEDEARFFFQQLISGVSYCHAMQICHRDLKLENTLLDGSPAPRLKICDFGYSKSSVLHSQPKSTVGTPAYIAPEILLRQEYDGKLADVWSCGVTLYVMLVGAYPFEDPQEPRDYRKTIQRILSVTYSIPEDLHLSPECRHLISRIFVADPATRITIPEITSDKWFLKNLPGDLMDENRMGSQFQEPEQPMQSLDTIMQIISEATIPTVRNRCLDDFMADNLDLDDDMDDFDSESEIDVDSSGEIVYAL
B2: SnRK2.3 fused with activation domain (AD) (enzyme, UniProt Q39193 1-361)
chain: MDRAPVTTGPLDMPIMHDSDRYDFVKDIGSGNFGVARLMRDKLTKELVAVKYIERGDKIDENVQREIINHRSLRHPNIVRFKEVILTPTHLAIIMEYASGGELYERICNAGRFSEDEARFFFQQLLSGVSYCHSMQICHRDLKLENTLLDGSPAPRLKICDFGYSKSSVLHSQPKSTVGTPAYIAPEVLLRQEYDGKIADVWSCGVTLYVMLVGAYPFEDPEEPRDYRKTIQRILSVKYSIPDDIRISPECCHLISRIFVADPATRISIPEIKTHSWFLKNLPADLMNESNTGSQFQEPEQPMQSLDTIMQIISEATIPAVRNRCLDDFMTDNLDLDDDMDDFDSESEIDIDSSGEIVYAL

Target: CHC1 (Arabidopsis thaliana) (UniProt Q0WNJ6)
Assay: two-hybrid; SnRK2s and ADA2b fused with activation domain (AD, pGADT7), CLC2 fused with binding domain (BD, pGBKT7); growth on SD-L-W-H medium containing 30 mM 3-AT

Binder | binding
B1 | no binding
B2 | no binding
